Results published in PubChem BioAssay AID2283149 (EPA ToxCast).
Only results without a clear call are listed here; the source files them as inconclusive. The calls were made as follows: active = hit-call score of the fitted dose curve at least 0.9, where 1 is the maximum; inconclusive = response in the unintended direction; inactive = score below 0.9. Potencies beside an inconclusive call are fits to weak or partial responses and may not hold up.

Amino acid sequences for entries named in this document (tags omitted). A change or cut given only in a name is not applied to a line headed by its entry.
UniProt P48729: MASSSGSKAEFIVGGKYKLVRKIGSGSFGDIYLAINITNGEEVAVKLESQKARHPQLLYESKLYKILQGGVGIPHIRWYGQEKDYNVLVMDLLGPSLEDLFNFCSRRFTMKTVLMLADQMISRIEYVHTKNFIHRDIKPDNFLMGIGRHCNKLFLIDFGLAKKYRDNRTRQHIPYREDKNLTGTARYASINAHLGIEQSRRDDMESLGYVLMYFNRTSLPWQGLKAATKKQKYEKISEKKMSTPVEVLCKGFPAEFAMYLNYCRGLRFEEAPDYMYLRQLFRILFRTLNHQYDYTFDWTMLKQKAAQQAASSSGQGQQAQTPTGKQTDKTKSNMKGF

These molecules were tested against human Casein Kinase 1-alpha (CK1a), CSNK1A1 (gene 1452) (UniProt P48729) (assay: NVS_ENZ_hCK1a: NovaScreen (NVS) Enzymatic Assay for human Casein Kinase 1-alpha (CK1a)).
Procedure: NVS_ENZ_hCK1a is a biochemical, single-readout assay that uses extracted gene-proteins in a cell-free assay. Measurements were taken 1 hour after chemical dosing in a 384-well plate.NVS_ENZ_hCK1a is one of one assay component(s) measured or calculated from the NVS_ENZ_hCK1a assay. It is designed to make measurements of enzyme activity, a form of enzyme reporter, as detected with fluorescence intensity signals by Fluorescence and electrophoretic mobility shift technology.Data from the assay component NVS_ENZ_hCK1a was analyzed into 1 assay endpoint. This assay endpoint, NVS_ENZ_hCK1a, was analyzed in the positive analysis fitting direction relative to DMSO as the negative control and baseline of activity. Using a type of enzyme reporter, loss-of-signal activity can be used to understand changes in the enzymatic activity as they relate to the gene CSNK1A1. Furthermore, this assay endpoint can be referred to as a primary readout, because this assay has produced multiple assay endpoints where this one serves a enzymatic activity function. To generalize the intended target to other relatable targets, this assay endpoint is annotated to the kinase intended target family, where the subfamily is serine/threonine kinase. […]
In the case of `CCOP(=S)(OCC)SCn1c(=O)oc2cc(Cl)ccc21`, the AC50 was inconclusive: 25 µM.
With `CCOC(=O)COc1cc(-c2nn(C)c(OC(F)F)c2Cl)c(F)cc1Cl` the AC50 was inconclusive: 25 µM.
